# From the supplement of paper PMC7666118
# Protein sequences, listed by entry. Tags and fused reporters are not part of them. Lines headed by an entry give the natural chain unless they say otherwise; changes in a name come on top.
# UniProt P84103: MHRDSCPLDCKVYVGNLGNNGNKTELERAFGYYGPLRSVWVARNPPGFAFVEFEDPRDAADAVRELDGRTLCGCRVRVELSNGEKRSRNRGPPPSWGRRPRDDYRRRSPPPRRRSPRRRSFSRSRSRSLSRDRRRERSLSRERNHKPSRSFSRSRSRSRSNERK
# UniProt Q9UJS0: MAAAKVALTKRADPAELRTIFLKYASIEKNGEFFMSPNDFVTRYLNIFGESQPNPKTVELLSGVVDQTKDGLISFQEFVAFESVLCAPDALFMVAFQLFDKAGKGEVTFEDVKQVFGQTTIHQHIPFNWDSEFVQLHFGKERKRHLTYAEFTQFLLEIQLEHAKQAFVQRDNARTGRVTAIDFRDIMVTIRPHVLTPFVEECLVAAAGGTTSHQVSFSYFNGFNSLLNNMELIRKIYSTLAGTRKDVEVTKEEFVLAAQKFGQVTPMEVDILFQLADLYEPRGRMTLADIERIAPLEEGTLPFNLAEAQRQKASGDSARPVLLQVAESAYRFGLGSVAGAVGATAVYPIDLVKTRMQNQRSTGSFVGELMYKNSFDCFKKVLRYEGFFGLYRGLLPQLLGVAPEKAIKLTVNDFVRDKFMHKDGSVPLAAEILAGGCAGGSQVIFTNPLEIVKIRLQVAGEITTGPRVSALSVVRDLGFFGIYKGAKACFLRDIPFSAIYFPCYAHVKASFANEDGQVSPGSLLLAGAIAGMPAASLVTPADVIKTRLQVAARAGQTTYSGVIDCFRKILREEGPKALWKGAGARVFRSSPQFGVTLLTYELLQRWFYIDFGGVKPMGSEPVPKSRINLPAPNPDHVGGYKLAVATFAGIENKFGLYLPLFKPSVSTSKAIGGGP
# UniProt Q8WUX1, whole entry: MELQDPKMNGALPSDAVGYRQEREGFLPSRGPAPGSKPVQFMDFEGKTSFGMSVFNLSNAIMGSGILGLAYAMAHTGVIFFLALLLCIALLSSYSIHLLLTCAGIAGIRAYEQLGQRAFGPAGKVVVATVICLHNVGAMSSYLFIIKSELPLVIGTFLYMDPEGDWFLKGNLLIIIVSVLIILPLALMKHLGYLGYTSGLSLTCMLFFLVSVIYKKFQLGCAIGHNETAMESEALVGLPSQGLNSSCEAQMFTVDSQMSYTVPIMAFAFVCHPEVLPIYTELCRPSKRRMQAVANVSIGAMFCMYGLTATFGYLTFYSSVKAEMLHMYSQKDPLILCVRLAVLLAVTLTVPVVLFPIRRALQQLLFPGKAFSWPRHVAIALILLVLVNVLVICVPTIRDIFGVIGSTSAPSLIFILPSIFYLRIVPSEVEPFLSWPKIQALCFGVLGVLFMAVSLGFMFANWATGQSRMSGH
# UniProt Q9BY50: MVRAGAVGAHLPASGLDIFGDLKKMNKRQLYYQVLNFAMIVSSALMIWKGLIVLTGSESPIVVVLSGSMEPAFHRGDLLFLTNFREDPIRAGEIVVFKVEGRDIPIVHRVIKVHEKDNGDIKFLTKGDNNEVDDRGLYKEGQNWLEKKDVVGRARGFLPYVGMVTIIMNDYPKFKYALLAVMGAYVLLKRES
# UniProt Q9UGK8: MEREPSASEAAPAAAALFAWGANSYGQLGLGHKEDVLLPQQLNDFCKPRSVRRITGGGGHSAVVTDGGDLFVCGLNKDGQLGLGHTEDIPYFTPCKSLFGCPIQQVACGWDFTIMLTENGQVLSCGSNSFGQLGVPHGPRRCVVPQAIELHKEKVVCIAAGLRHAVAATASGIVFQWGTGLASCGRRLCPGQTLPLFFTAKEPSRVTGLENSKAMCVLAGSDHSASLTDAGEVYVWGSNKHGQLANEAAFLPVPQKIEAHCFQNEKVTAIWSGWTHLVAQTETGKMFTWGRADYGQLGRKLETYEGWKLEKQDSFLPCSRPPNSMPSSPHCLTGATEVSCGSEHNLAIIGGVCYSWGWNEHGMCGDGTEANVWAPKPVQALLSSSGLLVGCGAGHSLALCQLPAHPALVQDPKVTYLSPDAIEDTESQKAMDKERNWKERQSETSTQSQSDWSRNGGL
# UniProt Q12904: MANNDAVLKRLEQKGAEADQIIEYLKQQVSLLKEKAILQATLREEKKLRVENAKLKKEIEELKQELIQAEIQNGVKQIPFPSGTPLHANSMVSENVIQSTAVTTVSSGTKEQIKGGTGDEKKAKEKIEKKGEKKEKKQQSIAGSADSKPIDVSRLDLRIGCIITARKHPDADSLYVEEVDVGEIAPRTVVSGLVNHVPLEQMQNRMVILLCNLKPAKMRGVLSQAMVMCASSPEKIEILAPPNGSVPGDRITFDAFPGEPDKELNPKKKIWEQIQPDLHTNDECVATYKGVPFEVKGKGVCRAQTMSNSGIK
# UniProt Q8TBP6: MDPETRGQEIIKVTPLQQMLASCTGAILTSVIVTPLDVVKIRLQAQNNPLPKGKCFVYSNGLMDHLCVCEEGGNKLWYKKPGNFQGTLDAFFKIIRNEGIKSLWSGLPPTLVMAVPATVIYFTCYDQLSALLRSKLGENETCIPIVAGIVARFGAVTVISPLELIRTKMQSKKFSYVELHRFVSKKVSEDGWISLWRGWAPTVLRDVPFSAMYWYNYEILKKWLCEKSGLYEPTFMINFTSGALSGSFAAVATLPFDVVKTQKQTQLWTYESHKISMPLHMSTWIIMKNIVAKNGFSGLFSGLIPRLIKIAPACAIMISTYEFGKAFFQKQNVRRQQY
# UniProt P12236: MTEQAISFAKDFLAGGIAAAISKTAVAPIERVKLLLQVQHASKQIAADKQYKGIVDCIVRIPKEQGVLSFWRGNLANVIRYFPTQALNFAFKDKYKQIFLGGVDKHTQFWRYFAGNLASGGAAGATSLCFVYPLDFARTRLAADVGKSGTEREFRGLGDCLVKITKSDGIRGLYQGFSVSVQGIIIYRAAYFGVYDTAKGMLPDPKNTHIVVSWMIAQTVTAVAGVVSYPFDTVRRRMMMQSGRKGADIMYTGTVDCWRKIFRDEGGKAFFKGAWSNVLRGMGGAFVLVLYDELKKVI
# UniProt Q9BXP2: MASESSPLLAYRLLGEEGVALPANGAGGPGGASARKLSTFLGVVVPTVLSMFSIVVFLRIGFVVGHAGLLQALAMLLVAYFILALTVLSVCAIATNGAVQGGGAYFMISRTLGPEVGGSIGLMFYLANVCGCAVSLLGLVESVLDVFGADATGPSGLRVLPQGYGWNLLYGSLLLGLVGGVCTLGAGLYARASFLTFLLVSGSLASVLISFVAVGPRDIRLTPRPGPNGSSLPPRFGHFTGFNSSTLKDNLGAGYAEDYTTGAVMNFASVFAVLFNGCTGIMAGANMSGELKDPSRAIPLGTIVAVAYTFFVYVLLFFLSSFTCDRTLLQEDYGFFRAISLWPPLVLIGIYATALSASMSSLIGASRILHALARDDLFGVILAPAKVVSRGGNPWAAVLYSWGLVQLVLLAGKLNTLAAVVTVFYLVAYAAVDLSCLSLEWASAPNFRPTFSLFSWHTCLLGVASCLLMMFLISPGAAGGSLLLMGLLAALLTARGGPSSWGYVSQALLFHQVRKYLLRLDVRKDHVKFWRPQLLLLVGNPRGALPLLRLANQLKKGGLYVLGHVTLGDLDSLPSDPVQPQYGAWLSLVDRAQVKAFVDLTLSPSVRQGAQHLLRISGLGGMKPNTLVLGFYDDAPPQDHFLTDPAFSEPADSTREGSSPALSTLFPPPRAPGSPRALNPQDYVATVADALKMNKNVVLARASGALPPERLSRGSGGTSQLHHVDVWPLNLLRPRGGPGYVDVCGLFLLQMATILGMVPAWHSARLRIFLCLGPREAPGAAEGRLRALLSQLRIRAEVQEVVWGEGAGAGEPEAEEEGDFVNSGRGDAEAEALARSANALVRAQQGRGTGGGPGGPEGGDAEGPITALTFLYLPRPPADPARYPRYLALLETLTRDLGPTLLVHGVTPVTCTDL
# UniProt Q92854, whole entry: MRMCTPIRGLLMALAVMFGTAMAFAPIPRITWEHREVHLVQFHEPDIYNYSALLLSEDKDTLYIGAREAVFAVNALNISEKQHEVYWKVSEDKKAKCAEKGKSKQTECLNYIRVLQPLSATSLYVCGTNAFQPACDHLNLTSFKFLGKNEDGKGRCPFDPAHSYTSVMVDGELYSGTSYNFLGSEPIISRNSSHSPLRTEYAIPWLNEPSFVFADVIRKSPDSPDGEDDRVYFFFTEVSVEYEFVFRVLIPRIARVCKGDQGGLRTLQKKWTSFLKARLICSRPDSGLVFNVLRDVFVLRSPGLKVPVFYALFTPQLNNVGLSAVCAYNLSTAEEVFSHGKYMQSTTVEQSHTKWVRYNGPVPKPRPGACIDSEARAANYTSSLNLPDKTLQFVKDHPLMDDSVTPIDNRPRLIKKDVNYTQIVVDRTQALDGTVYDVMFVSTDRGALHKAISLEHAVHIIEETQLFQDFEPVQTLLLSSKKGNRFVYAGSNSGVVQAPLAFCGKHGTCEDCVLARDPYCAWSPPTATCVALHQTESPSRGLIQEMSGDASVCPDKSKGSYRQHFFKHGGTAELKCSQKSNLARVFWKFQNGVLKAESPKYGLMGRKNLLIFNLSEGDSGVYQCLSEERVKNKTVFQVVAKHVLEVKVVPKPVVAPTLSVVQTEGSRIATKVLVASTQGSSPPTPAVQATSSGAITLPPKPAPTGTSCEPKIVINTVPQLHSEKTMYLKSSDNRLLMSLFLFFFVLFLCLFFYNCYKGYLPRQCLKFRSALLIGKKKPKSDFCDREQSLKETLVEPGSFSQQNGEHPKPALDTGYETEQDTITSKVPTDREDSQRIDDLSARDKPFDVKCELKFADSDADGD
# UniProt Q92791: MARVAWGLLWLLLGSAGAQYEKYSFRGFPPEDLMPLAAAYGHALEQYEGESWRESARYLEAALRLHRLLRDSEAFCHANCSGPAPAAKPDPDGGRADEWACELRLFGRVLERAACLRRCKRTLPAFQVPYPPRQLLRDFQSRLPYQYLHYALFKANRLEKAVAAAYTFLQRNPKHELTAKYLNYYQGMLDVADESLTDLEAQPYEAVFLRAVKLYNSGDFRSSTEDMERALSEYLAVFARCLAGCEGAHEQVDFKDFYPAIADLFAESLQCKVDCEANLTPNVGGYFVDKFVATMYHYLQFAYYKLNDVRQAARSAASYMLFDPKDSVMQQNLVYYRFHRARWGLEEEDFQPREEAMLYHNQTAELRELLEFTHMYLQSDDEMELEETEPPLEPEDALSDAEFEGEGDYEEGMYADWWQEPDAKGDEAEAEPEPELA
# UniProt Q6NXT4: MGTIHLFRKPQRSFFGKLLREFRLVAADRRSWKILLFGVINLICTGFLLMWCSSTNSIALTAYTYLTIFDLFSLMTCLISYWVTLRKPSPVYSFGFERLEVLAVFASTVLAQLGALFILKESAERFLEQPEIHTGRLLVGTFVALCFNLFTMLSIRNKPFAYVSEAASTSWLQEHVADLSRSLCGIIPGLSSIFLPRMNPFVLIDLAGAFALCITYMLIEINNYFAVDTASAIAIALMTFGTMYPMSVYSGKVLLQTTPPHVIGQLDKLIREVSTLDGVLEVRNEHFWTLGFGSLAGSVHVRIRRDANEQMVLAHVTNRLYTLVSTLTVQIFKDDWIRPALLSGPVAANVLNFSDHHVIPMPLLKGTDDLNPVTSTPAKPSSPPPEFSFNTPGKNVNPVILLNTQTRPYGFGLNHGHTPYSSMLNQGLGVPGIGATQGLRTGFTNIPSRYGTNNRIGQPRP
# UniProt Q6J4K2: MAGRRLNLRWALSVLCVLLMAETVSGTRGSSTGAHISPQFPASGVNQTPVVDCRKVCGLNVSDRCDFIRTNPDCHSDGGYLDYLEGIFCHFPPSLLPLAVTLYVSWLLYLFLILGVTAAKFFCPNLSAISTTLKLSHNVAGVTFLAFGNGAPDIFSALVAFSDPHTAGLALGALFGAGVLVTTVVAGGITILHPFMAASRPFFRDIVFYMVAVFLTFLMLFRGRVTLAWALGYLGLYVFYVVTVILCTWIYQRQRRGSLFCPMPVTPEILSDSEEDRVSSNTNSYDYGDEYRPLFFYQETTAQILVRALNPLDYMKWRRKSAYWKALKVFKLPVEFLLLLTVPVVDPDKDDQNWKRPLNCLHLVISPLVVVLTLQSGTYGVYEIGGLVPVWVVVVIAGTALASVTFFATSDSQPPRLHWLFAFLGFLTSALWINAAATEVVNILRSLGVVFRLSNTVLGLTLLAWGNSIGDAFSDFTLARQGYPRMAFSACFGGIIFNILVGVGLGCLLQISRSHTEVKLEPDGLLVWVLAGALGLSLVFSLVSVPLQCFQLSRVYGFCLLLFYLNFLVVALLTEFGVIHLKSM
# UniProt Q8IXU6: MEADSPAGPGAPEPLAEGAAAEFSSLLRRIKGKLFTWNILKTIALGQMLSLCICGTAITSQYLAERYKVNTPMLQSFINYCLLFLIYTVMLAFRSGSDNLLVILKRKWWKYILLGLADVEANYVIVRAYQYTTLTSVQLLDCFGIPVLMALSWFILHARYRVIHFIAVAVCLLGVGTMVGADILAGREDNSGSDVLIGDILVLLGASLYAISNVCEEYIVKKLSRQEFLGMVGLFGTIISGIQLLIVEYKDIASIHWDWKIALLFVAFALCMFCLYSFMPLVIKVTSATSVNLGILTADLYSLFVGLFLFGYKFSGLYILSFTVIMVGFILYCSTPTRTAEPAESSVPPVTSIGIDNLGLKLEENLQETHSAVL
# The other results are listed elsewhere or left out.
# Compound: COc1ccc(Cn2ccc3ccc(C(=O)NO)cc32)cc1
# Experiment: dose-dependent thermal stabilisation call (2D-TPP, DLPTP, 10% FDR) (binary (1 = stabilised)); higher = stabilised by the compound
# Conditions: system: HL-60 intact cells; concentration range 0.04-10 µM
row,Target,dose-dependent thermal stabilisation call
1,SERINC3 (UniProt Q13530),inactive: 0
2,SEPSECS (UniProt Q9HD40),inactive: 0
3,SFRS3 (UniProt P84103),inactive: 0
4,SCAF1 (UniProt Q9H7N4),inactive: 0
5,SIAH1 (UniProt Q8IUQ4),inactive: 0
6,SERPINB2 (UniProt P05120),inactive: 0
7,SCRN2 (UniProt Q96FV2),inactive: 0
8,SLC25A13 (UniProt Q9UJS0),active: 1
9,SERPINB1 (UniProt P30740),inactive: 0
10,SLC38A5 (UniProt Q8WUX1),inactive: 0
11,SEC11C (UniProt Q9BY50),inactive: 0
12,SLC35D1 (UniProt Q9NTN3),inactive: 0
13,SEPT11 (UniProt Q9NVA2),inactive: 0
14,SLC39A1 (UniProt Q9NY26),inactive: 0
15,SETD3 (UniProt Q86TU7),inactive: 0
16,SCYL1 (UniProt Q96KG9),inactive: 0
17,SERGEF (UniProt Q9UGK8),inactive: 0
18,SCYE1 (UniProt Q12904),inactive: 0
19,SLC38A7 (UniProt Q9NVC3),inactive: 0

row,Target,dose-dependent thermal stabilisation call
1,SF3A1 (UniProt Q15459),inactive: 0
2,SLC43A3 (UniProt Q8NBI5),inactive: 0
3,SLC25A40 (UniProt Q8TBP6),inactive: 0
4,SCARB2 (UniProt Q14108),inactive: 0
5,SH3BGRL3 (UniProt Q9H299),inactive: 0
6,SHC1 (UniProt P29353),inactive: 0
7,SLC25A6 (UniProt P12236),inactive: 0
8,SLC12A9 (UniProt Q9BXP2),inactive: 0
9,SEMA4D (UniProt Q92854),inactive: 0
10,SIL1 (UniProt Q9H173),inactive: 0
11,SLC6A9 (UniProt P48067),inactive: 0
12,SCRN3 (UniProt Q0VDG4),inactive: 0
13,SC65 (UniProt Q92791),inactive: 0
14,SLC30A6 (UniProt Q6NXT4),inactive: 0
15,SLC24A6 (UniProt Q6J4K2),inactive: 0
16,SLC35F2 (UniProt Q8IXU6),inactive: 0
17,SLC7A5 (UniProt Q01650),inactive: 0
18,SLC25A14 (UniProt O95258),inactive: 0
19,SBDS (UniProt Q9Y3A5),inactive: 0
